Data source: PubChem BioAssay AID743454 (Peter MacCallum Cancer Centre, 2014)
Shown is an unselected part of about 18,000 reagents. 450 of them (2.5%) were called active. 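Single biological run; no consistent viability z cut-off exists, so the class columns, not z-scores, define the calls.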 A number with no mark means an inactive call. Reagents against one gene are numbered here. Reagent sequences are not shown.

Assay: 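Search for knock-downs that restore vorinostat killing in resistant colon cancer cells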 (primary screen)
Cells: human HCT116-VR colon cancer cells, selected for vorinostat resistance
Reagent: siRNA pool against human genes, 40 nM siRNA pool
Timing: vorinostat for 24 h, read-out about 72 h after transfection
Challenge: vorinostat at 2.5 µM final
Read-out: 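Cell viability by CellTiter-Fluor and caspase 3/7 activity by luminescence, each scaled to mock wells per plate, duplicates averaged, then robust z-scored over all plates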
Scale: viability robust z-score: higher = more viable cells than screen typical; caspase robust z-score: higher = more caspase 3/7 activity than screen typical
Active means: 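Hits are knock-downs in viability class RV1/RV2 or caspase class CA1/CA2, excluding ones that killed cells in the no-drug cell-count arm; hits then retested with single siRNAs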

gene | pool no. | viability hit class | caspase hit class | viability robust z-score | caspase robust z-score
ALAS2 (5'-aminolevulinate synthase 2) | 1 | no change | no change | -0.99 | 0.37
KRT74 (keratin 74) | 1 | no change | no change | 0.8 | 0.7
CIDEC (cell death inducing DFFA like effector c) | 1 | no change | no change | -0.01 | -0.16
VIP (vasoactive intestinal peptide) | 1 | no change | no change | -1.07 | -0.97
MTMR14 (myotubularin related protein 14) | 1 | no change | no change | -0.4 | 2.79
CDRT15 (CMT1A duplicated region transcript 15) | 1 | no change | no change | 1.06 | -0.22
TMA16 (translation machinery associated 16 homolog) | 1 | no change | no change | 0.64 | 0.28
MYL2 (myosin light chain 2) | 1 | no change | no change | 0.51 | 0.18
BRICD5 (BRICHOS domain containing 5) | 1 | no change | no change | 0.82 | -0.2
AIF1L (allograft inflammatory factor 1 like) | 1 | no change | no change | -0.79 | 0.14
TONSL (tonsoku like, DNA repair protein) | 1 | no change | no change | 0.34 | 1.4
KRT5 (keratin 5) | 1 | no change | no change | 0.33 | 0.7
OTOA (otoancorin) | 1 | no change | no change | -0.69 | 1.16
OR5J2 (olfactory receptor family 5 subfamily J member 2) | 1 | no change | no change | 0.05 | -0.74
FOXR1 (forkhead box R1) | 1 | no change | no change | 1.27 | -0.46
MKS1 (MKS transition zone complex subunit 1) | 1 | no change | no change | -1.49 | 0.12
RAD52 (RAD52 DNA repair protein) | 1 | no change | no change | 0.66 | -0.52
ZCCHC2 (zinc finger CCHC-type containing 2) | 1 | no change | no change | 0.12 | -0.32
ATP6V0A1 (ATPase H+ transporting V0 subunit a1) | 1 | no change | no change | 0.92 | 0.16
NLRP9 (NLR family pyrin domain containing 9) | 1 | no change | no change | 0.94 | -0.64
SH3BGR (SH3 domain binding glutamate rich protein) | 1 | no change | no change | 0.88 | -1.14
SLC30A1 | 1 | no change | no change | 1.69 | -0.19
SS18L2 (SS18 like 2) | 1 | no change | no change | -3.17 | 5.77
KRT10-AS1 (KRT10 antisense RNA 1) | 1 | no change | no change | 0.99 | -0.92
AGGF1 (angiogenic factor with G-patch and FHA domains 1) | 1 | no change | no change | -0.78 | -1.42
DOK1 (docking protein 1) | 1 | no change | no change | 1.12 | -0.88
MSS51 (MSS51 mitochondrial translational activator) | 1 | no change (active) | CA1 (caspase activation) | -0.4 | 5.65
SULF1 (sulfatase 1) | 1 | no change | no change | 0.6 | -0.98
RPS4Y1 (ribosomal protein S4 Y-linked 1) | 1 | no change | no change | -0.37 | -1.09
CFAP53 (cilia and flagella associated protein 53) | 1 | no change | no change | 0.76 | -0.53
MAGEB6 (MAGE family member B6) | 1 | no change | no change | -1.02 | -0.64
SEMG1 (semenogelin 1) | 1 | no change | no change | 0.23 | -0.7
HIF1A (hypoxia inducible factor 1 subunit alpha) | 1 | no change | no change | 0.62 | 0.76
PRSS2 (serine protease 2) | 1 | no change | no change | 0.46 | -0.24

Not a retest: an excerpt of the list.
gene | pool no. | viability hit class | caspase hit class | viability robust z-score | caspase robust z-score
KRT5 (keratin 5) | 1 | no change | no change | 0.33 | 0.7
OTOA (otoancorin) | 1 | no change | no change | -0.69 | 1.16
OR5J2 (olfactory receptor family 5 subfamily J member 2) | 1 | no change | no change | 0.05 | -0.74
FOXR1 (forkhead box R1) | 1 | no change | no change | 1.27 | -0.46

More entries follow.
gene | pool no. | viability hit class | caspase hit class | viability robust z-score | caspase robust z-score
SEC61A2 (SEC61 translocon subunit alpha 2) | 1 | no change | no change | -0.9 | -0.08
PMCH (pro-melanin concentrating hormone) | 1 | no change | no change | 0.28 | -0.5
CFAP210 (cilia and flagella associated protein 210) | 1 | no change | no change | 0.4 | 0.3
NOL4L (nucleolar protein 4 like) | 1 | no change | no change | 0.1 | 4.75
USP17L9P | 1 | no change | no change | -0.86 | 1.69
AZU1 (azurocidin 1) | 1 | no change | no change | -0.16 | -0.9
HGF (hepatocyte growth factor) | 1 | no change | no change | 0.02 | 0.44
TMPRSS13 (transmembrane serine protease 13) | 1 | no change | no change | -0.3 | -0.72
PTCRA (pre T cell antigen receptor alpha) | 1 | no change | no change | -1.56 | 2.38
SZT2 (SZT2 subunit of KICSTOR complex) | 1 | no change | no change | 2.34 | -0.27
SZT2 (SZT2 subunit of KICSTOR complex) | 2 | no change | no change | -0.78 | 0.32
ZNF557 (zinc finger protein 557) | 1 | no change | no change | -0.14 | -0.62
ROCK2 (Rho associated coiled-coil containing protein kinase 2) | 1 | no change | no change | -0.48 | 4.9
MFF (mitochondrial fission factor) | 1 | no change | no change | 0.23 | -0.4
RASGRP2 (RAS guanyl releasing protein 2) | 1 | no change (active) | CA1 (caspase activation) | -2.59 | 7.46
GPX2 (glutathione peroxidase 2) | 1 | no change | no change | 0.03 | 2.75
LDHC (lactate dehydrogenase C) | 1 | no change | no change | -0.55 | -0.49
TCEA2 (transcription elongation factor A2) | 1 | no change | no change | -0.18 | 0.58
DEFB125 (defensin beta 125) | 1 | no change | no change | 0.42 | -0.75
SACK1E (scaffolding CK1 anchoring protein E) | 1 | no change | no change | -0.88 | -0.76
ZWILCH (zwilch kinetochore protein) | 1 | no change | no change | -1.04 | -0.05
GCN1 (GCN1 activator of EIF2AK4) | 1 | no change | no change | -0.63 | 0.64
BDP1 (BDP1 general transcription factor IIIB subunit) | 1 | RV2 (reduced viability) (active) | no change | -3.62 | -0.68
